The campaign covered roughly 360,000 compounds. About 7,500 (2.1%) were called active. Inconclusive means that the source gave no clear call. Such entries were picked first, then a sample of the others. Calls follow the shape of the dose curve; as a rule, active = well fitted inhibition curve with a large enough effect; inconclusive = small, poorly fitted or top-dose-only effect, or effect the other way; inactive = flat fitted curve, though single readings scatter. Where the call is inconclusive, the potency comes from a doubtful curve fit.
Assay: Nrf2 qHTS screen for inhibitors; also: nearly all actives have a fitted effect of over 60% in size
Settings: A549 ARE-Fluc reporter, luciferase luminescence, 18-24 h; series mostly up to 46 µM
How it was run: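 In this cell-based qHTS, ARE-driven firefly luciferase in A549 cells reports Nrf2 activity; the luminescent signal after BugLite lysis is the measured value, with a prior CellTiter-Fluor read for cell health.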
Potency is read from the fitted curve at half-maximal effect.

Compound	Potency
CCOc1ccc(N(CC)S(=O)(=O)c2cc(Br)cc3c2N(C(C)=O)C(C)C3)cc1 (centres undefined)	inconclusive: 6.51 µM [falling, single point]
CC(=O)c1ccc(NC(=O)c2ccc3c(=O)n4c(nc3c2)CCCCC4)cc1	inactive
COc1ccc2c(C)c(CC(=O)N3CCN(C(=O)C4COc5ccccc5O4)CC3)c(=O)oc2c1C (centres undefined)	inactive
Cc1cccc(N2CCN(C(=O)Cn3nc(C)n4cccc4c3=O)CC2C)c1 (centres undefined)	inconclusive: 5.17 µM [activator, single point]
COc1ccc(C(=O)N(Cc2ccco2)Cc2cccs2)c(OC)c1	inactive
Cc1c(/C=N\NC(=O)C2COc3ccccc3O2)c2ccccc2n1C (centres undefined)	inconclusive: 9.2 µM [activator, partial curve]
Cc1ccc(C)c(N2CCN(C(=O)C34CC5CC(C3)CC(n3nnc(C)n3)(C5)C4)CC2)c1	inconclusive: 20.6 µM [falling, single point]
CC1CCCc2sc3nc(SCC(=O)c4ccc(Br)cc4)nc(N)c3c21 (centres undefined)	inactive
COCCn1c(C)cc(C(=O)COC(=O)C2CC(=O)N(CCc3ccc(OC)c(OC)c3)C2)c1C (centres undefined)	inconclusive: 23.1 µM [activator, single point]
CCCC(=O)Oc1c(S(=O)(=O)c2ccc(C)cc2)c(C)nn1C(C)(C)C	inconclusive: 18.4 µM [falling, single point]
COc1ccc(S(=O)(=O)c2cnc3ccc(Cl)cc3c2N2CCCCC2C)cc1 (centres undefined)	inconclusive: 29.1 µM [falling, single point]
Cc1ccc(/C(N)=N/OC(=O)CCC2CCCC2)cc1	inconclusive: 23.1 µM [activator, single point]
COc1ccc(C2/C=C\CN(C(=O)C3CC3)C(Cc3ccccc3)C(=O)N2Cc2ccc(F)cc2)cc1 (centres undefined)	inconclusive: 29.1 µM [falling, single point]
COc1ccc(/C(N)=N/OC(=O)c2ccc3c(c2)OCO3)cc1OC	inconclusive: 1.03 µM [activator, full curve]
Cn1nnc2cc(C(=O)N3CCN(c4ccccn4)CC3)ccc21	inactive
N=C1N(c2ccccc2)C(=S)C(=Nc2ccccc2)N1c1ccccc1	inactive
COc1ccccc1NC(=O)c1ccc(Cl)c(S(=O)(=O)NCc2ccco2)c1	inconclusive: 16.4 µM [falling, partial curve, poor fit]
O=C1c2ccccc2NC(c2cnc3ccccc3n2)N1O (centres undefined)	inconclusive: 1.84 µM [activator, full curve, poor fit]
Cc1ccc(CNC(=S)NC2CCC(C(C)(C)C)CC2)cc1 (centres undefined)	active: 20.6 µM
